Reference: PubChem BioAssay AID493014 (National Center for Advancing Translational Sciences (NCATS), 2011)
The other results are listed elsewhere or left out. The main result of the screen is listed elsewhere. These columns were measured beside it and carry no call. Compounds called inactive in the main read-out are mostly missing here. The note in brackets gives the kind of curve behind each potency; many fits are weak.

Assay: qHTS Assay to Find Inhibitors of Chronic Active B-Cell Receptor Signaling
Settings: ABC-DLBCL IkBa-CBG/CBR reporter, luminescence ratio (green luciferase fused to IkBa over red control in TMD8 lymphoma cells), 4 h
How it was run: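 Compounds up to 46 uM were incubated four hours with TMD8 cells whose green CBG68 luciferase is fused to IkappaBalpha; red CBR luminescence normalised the signal, and concentration-effect curves were fitted to fusion, red and ratio data.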

[1] = measured here: CBR red luminescence, cell number
[2] = measured here: IkBa-CBG green luminescence

SMILES: COc1cccc(-c2noc(CCCC(=O)N3CCOCC3)n2)c1
- AC50 [1]: 0.631 µM [rising, full curve, poor fit]
- AC50 [2]: 3.16 µM [rising, partial curve, poor fit]

SMILES: CCn1c(O)c(N=Nc2ccc3ccccc3n2)c2ccccc21
- AC50 [1]: 0.355 µM [falling, full curve, poor fit]

SMILES: Cc1cc(C)c2c(=O)[nH]c(SCC(=O)Nc3ccc(N(C)C)cc3)nc2n1
- AC50 [1]: 0.501 µM [falling, full curve, poor fit]

SMILES: Cc1ccccc1OCc1nc2ccccc2[nH]1
- AC50 [1]: 15.8 µM [falling, partial curve]

SMILES: CCc1cc2c(SCC(=O)N(C)C3CCS(=O)(=O)C3)ncnc2s1 (stereo not drawn)
- AC50 [1]: 25.1 µM [rising, single point]

SMILES: COc1ccccc1/C=C/C(=O)NCC(=O)N=Nc1c(O)[nH]c2ccccc12
- AC50 [1]: 8.91 µM [falling, partial curve, poor fit]

SMILES: COC(=O)C1CN(C(=O)COc2ccc(C)c(C)c2)c2ccccc2O1 (stereo not drawn)
- AC50 [1]: 35.5 µM [falling, single point]

SMILES: CC(C)CCSc1nnc(N)s1
- AC50 [1]: 5.01 µM [rising, partial curve, poor fit]

SMILES: Cc1cccc([C@@H]2[C@@H]3C(=O)N(Cc4ccccc4)C(=O)[C@@H]3[C@]3(C)C(=O)N(c4cccc(F)c4)C(=O)N23)c1
- AC50 [1]: 18.4 µM [falling, partial curve]

SMILES: C=CCNC(=O)c1onc(CSc2ccc(Cl)cc2)c1C(=O)NCC=C
- AC50 [1]: 12.6 µM [falling, single point]

SMILES: C=CC[n+]1c(C)csc1Nc1ccc(C)cc1
- AC50 [1]: 12.6 µM [rising, partial curve, poor fit]

SMILES: COc1ccc(-n2c(=O)c3c4c(sc3n(CC(=O)NC3CCCC3)c2=O)CCCC4)c(OC)c1
- AC50 [1]: 12.6 µM [falling, partial curve, poor fit]

SMILES: CCOc1cccc2cc(C(C)=O)oc12
- AC50 [1]: 0.708 µM [falling, full curve, poor fit]

SMILES: C=CCSc1nc2ccccc2n2cnnc12
- AC50 [1]: 35.5 µM [falling, single point]

SMILES: CCC(C)c1ccc(O)c(NC(=O)c2ncn[nH]2)c1 (stereo not drawn)
- AC50 [1]: 0.58 µM [rising, full curve, poor fit]

SMILES: O=[N+]([O-])c1cc(/C=N/N2CCOCC2)cs1
- AC50 [1]: 35.5 µM [rising, single point]

SMILES: COc1ccc(/C(C)=N/NC(=O)c2nc(C)cc(C)n2)cc1
- AC50 [1]: 1.64 µM [rising, partial curve, poor fit]

SMILES: COc1ccccc1Cn1c(SCC(=O)C(C)(C)C)nc2ccccc2c1=O
- AC50 [1]: 0.112 µM [rising, full curve, poor fit]

SMILES: O=c1cc(CN2CCN(S(=O)(=O)c3ccccc3[N+](=O)[O-])CC2)nc2sccn12
- AC50 [1]: 11.2 µM [rising, partial curve, poor fit]

SMILES: Cc1cc(C(=O)CN2C(=O)C(=O)N(C3CCCC3)C2=O)c(C)n1CCc1ccc(F)cc1
- AC50 [1]: 29.1 µM [falling, single point]

SMILES: CC(C)Cc1nc2sc3c(NCc4ccco4)ncnc3c2c2c1COC(C)(C)C2
- AC50 [1]: 0.146 µM [rising, full curve, poor fit]

SMILES: CCOC(=O)N1CCN(C(=O)CSc2nnc(Cn3c(=O)sc4ccccc43)n2C)CC1
- AC50 [1]: 0.0731 µM [rising, full curve, poor fit]

SMILES: COc1cc(/C=N/OCC(=O)Nc2cc(C)cc(C)c2)ccc1OCc1ccc(Cl)cc1
- AC50 [1]: 0.731 µM [rising, full curve, poor fit]

SMILES: COc1cccc(N2CCN(S(=O)(=O)c3ccc(-c4coc(C)n4)cc3)CC2)c1
- AC50 [1]: 0.708 µM [rising, full curve, poor fit]

SMILES: CCSc1nc2ccccc2n1CCC(=O)O
- AC50 [1]: 6.51 µM [rising, full curve, poor fit]

SMILES: Cc1cccn2c(NCc3ccc4c(c3)OCO4)c(-c3ccc(O)cc3)nc12
- AC50 [1]: 12.6 µM [falling, single point]

SMILES: O=C1COc2ccc(OCc3ccc(F)cc3)cc21
- AC50 [1]: 3.55 µM [rising, partial curve]

SMILES: CCOC(=O)c1ccc(N/C=C\C(=O)c2cccc(OC)c2)cc1
- AC50 [1]: 0.116 µM [falling, full curve]

SMILES: C=CCn1c(O)c(N=NC(=S)Nc2ccccc2F)c2cc(S(=O)(=O)N3CCOCC3)ccc21
- AC50 [1]: 35.5 µM [rising, single point]
- AC50 [2]: 3.55 µM [falling, full curve]

SMILES: O=C(NC(=S)Nc1sc2c(c1C(=O)O)CCCC2)c1ccccc1
- AC50 [1]: 14.1 µM [falling, partial curve, poor fit]

SMILES: Cn1c(=O)c2nc(-c3ccc(Cl)cc3Cl)oc2c2ccccc21
- AC50 [1]: 1.64 µM [rising, single point]

SMILES: Cc1ccc2c(c1)c1ncnc(N3CCOCC3)c1n2C
- AC50 [1]: 1.12 µM [rising, partial curve, poor fit]

SMILES: CCOC(=O)C1C(=O)NC(N2CCN(c3ccccc3)CC2)=NC1c1ccco1 (stereo not drawn)
- AC50 [1]: 2.06 µM [rising, partial curve, poor fit]

SMILES: COc1ccc(NC(=O)c2ccc(COCC(F)(F)C(F)F)cc2)cc1OC
- AC50 [1]: 4.61 µM [rising, single point]

SMILES: CCCc1cc(N2CCC(C(N)=O)CC2)nc(-c2ccccc2)n1
- AC50 [1]: 35.5 µM [falling, single point]

SMILES: COc1cccc(N/C=C/C(=O)c2ccc(C)cc2)c1
- AC50 [1]: 35.5 µM [falling, single point]

SMILES: O=C(N/N=C/c1cc(Br)c(O)c(Br)c1O)c1cccnc1
- AC50 [1]: 11.2 µM [falling, partial curve, poor fit]

SMILES: COc1ccc(C2=Nn3c(nnc3-c3ccccc3OC)SC2)cc1OC1CCCC1
- AC50 [1]: 5.8 µM [falling, single point]
- AC50 [2]: 2.91 µM [falling, full curve]

SMILES: CC1=CCC(COC(=O)Nc2ccccc2)CC1 (stereo not drawn)
- AC50 [1]: 6.31 µM [falling, full curve]

SMILES: CCCCN(C(=O)CSc1nnc(-c2ccc(Cl)cc2)o1)c1c(N)n(CC(C)C)c(=O)[nH]c1=O
- AC50 [1]: 23.1 µM [rising, single point]
